These are yes or no findings as the source states them, for the method shown. In cells and extracts the contact can be indirect. These calls come from enrichment with a bait or labelling near it, and not all partners need be listed. Where a sequence is shown, tags or fusion partners need not be part of it.
Target: T1, proteinA/[His]6-tagged Trf4p (S. cerevisiae) (UniProt P53632)
T1 sequence: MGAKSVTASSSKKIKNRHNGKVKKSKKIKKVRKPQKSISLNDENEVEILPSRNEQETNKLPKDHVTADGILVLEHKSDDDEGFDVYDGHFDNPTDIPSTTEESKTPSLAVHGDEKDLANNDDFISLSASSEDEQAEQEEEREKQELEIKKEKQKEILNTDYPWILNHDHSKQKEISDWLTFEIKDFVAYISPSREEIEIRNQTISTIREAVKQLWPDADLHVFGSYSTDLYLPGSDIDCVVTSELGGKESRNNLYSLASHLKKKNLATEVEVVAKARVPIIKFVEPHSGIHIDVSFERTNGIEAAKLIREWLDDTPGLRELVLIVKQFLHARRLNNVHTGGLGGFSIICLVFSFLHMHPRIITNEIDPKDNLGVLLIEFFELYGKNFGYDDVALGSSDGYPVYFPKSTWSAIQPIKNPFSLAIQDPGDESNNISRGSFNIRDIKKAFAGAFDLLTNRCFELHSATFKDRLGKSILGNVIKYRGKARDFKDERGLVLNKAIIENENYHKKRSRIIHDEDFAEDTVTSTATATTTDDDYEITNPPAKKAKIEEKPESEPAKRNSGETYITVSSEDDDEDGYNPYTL
Test: affinity purification with mass spectrometry; proteinA/[His]6-tagged Trf4p purified from yeast extract on IgG Sepharose and Ni2+-NTA agarose; SDS-PAGE, Colloidal Coomassie bands identified by MS-MS

binding: binds
B1: Hul4p (protein, UniProt P40985 1-892)
chain: MVSLFDKLNAKKDGRDGSVSKELLSHSVAHTKNRLPKSGRRTSERSLAASVKDGSCSNSKSNKRNSSASVSGEEDKSCLISLNCLCCGVPLRFPASITKFRCSACQVTVIVKEPEINSNLESSTHISCTLEGLQMVVRRCHDDLQRLKKTGILDKERKGLIFQPVITYLLDRFHDVSILNRSFLVHDGGKNIKMLNYEVLQRFYSILSNLPTRKPYYSMLCCCNDLLKRITINKGENLQILQYRWLLIILNIPTIRTCLIRDRKSKNVFETQQIRAVSYELAKRCIGYLSNLSTKTSQQLIQSLRRTPTDNFSYQVEILNLYINFQFSRLLSNELSNRTAKNNVKPEDEMRSRLRRHHTTGHEFLSTRPISAQSNDKQGSGFTHPVNNKMKFKFFQYEEDWHIHSAAKLTFIYYVANTRRNGRGALSIQSFYNITLDFIDYKQDFDHWRGVAQKTKMNQLIEEWGNSTTKKCFSFCKYPFILSLGIKISIMEYEIRRIMEHEAEQAFLISLDKGKSVDVYFKIKVRRDVISHDSLRCIKEHQGDLLKSLRIEFVNEPGIDAGGLRKEWFFLLTKSLFNPMNGLFIYIKESSRSWFAIDPPNFDKSKGKNSQLELYYLFGVVMGLAIFNSTILDLQFPKALYKKLCSEPLSFEDYSELFPETSRNLIKMLNYTEDNFEDVFSLTFETTYRNNNWILNDSKSSKEYVTVELCENGRNVPITQSNKHEFVMKWVEFYLEKSIEPQYNKFVSGFKRVFAECNSIKLFNSEELERLVCGDEEQTKFDFKSLRSVTKYVGGFSDDSRAVCWFWEIIESWDYPLQKKLLQFVTASDRIPATGISTIPFKISLLGSHDSDDLPLAHTCFNEICLWNYSSKKKLELKLLWAINESEGYGFR
